Molecules are shown by their SMILES. Values after ≈ are worked out from the molar mass of the structure shown.

Here are results for 1 molecule from US20230129326A1, “METHODS TO PREVENT SARS-COV-2 INFECTION AND TREAT COVID-19” (priority 2020, published 2023).

In the assay the test system is SARS-CoV-2 isolate USA-UF-1/2020. The experiment in a line: microbe, parasite or virus in culture. It is filed as cell-based. The settings on record: Severe acute respiratory syndrome coronavirus 2, Vero C1008, read-out: EC50, 50% inhibition of SARS-CoV-2 isolate USA-UF-1/2020 infection of Vero E6 cells.

On to `CN(C)CCOC(c1ccccc1)c1ccccc1` [diphenhydramine], for which the EC50 is 17.4 µg/mL (≈ 68.1 µM).
